“And” between values parts separate entries of the source, which are not always exact repeats. Equal values may be shown once.
System: Caco-2 cells
Assay: CaCo-2 permeability (bi-directional)
Settings: HBSS/HBSS; pH 7.4/7.4
Experimental: Caco-2 cells obtained from the ATCC were used between passage numbers 40—60. Cells were seeded onto Millipore Multiscreen Transwell plates at 1 × 10^5 cells/cm^2. The cells were cultured in DMEM and media was changed every two or three days. On day 20, the permeability study was performed. […] Cells were then incubated with HBSS at the desired pH in both apical and basolateral compartments for 40 min to stabilize physiological parameters.
The fluorescent integrity marker lucifer yellow was also included in the dosing solution. Analytical standards were prepared from test compound DMSO dilutions and transferred to buffer, maintaining a 1% v/v DMSO concentration.
For assessment of A-B permeability, HBSS was removed from the apical compartment and replaced with test compound dosing solution. The apical compartment insert was then placed into a companion plate containing fresh buffer (containing 1% v/v DMSO). For assessment of B-A permeability, HBSS was removed from the companion plate and replaced with test compound dosing solution. Fresh buffer (containing 1% v/v DMSO) was added to the apical compartment insert, which was then placed into the companion plate.
Compound permeability was assessed in duplicate. Compounds of known permeability characteristics were run as controls on each assay plate.
Test and control compounds were quantified by LC–MS/MS cassette analysis using a 7-point calibration with appropriate dilution of the samples. The starting concentration (C0) was determined from the dosing solution and the experimental recovery calculated from C0 and both apical and basolateral compartment concentrations. The integrity of the monolayer throughout the experiment was checked by monitoring lucifer yellow permeation using fluorimetric analysis.
The permeability coefficient (Papp) for each compound was calculated from the following equation: Papp=dQ/dtC0×A where dQ/dt was the rate of permeation of the drug across the cells, C0 was the donor compartment concentration at time zero and A was the area of the cell monolayer. C0 was obtained from analysis of the dosing solution.
Efflux ratio (ER) was calculated from mean A-B and B-A data. This was derived from: ER=Papp(B-A)Papp(A-B)

CC(C)NCC(O)COc1ccc(CC(N)=O)cc1 (stereo not shown) [atenolol, reference compound]
Papp A2B Replicate 1: 0.298 10-6 cms-1 and 0.155 10-6 cms-1 and 0.487 10-6 cms-1
Papp A2B Replicate 2: 0.336 10-6 cms-1 and 0.187 10-6 cms-1 and 0.460 10-6 cms-1
Papp B2A Replicate 1: 0.785 10-6 cms-1 and 0.251 10-6 cms-1 and 0.885 10-6 cms-1
Papp B2A Replicate 2: 0.662 10-6 cms-1 and 0.380 10-6 cms-1 and 0.813 10-6 cms-1

Source: publication PMC10060354, “Discovery of a small molecule ligand of FRS2 that inhibits invasion and tumor growth” (Cellular Oncology, 2022)
